One sequence from paper PMC3867479 can be followed below.

The data set deals with T1, HMGA1 (UniProt P17096).
T1 sequence (looked up, limits assumed): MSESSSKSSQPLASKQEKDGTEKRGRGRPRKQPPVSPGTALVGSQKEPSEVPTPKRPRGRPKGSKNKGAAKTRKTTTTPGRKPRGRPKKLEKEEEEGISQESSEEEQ
The data set can be described thus: competition with a labelled probe. The conditions noted are these: 30-fold excess vs P5 probe, IM-9 NE; EMSA: 15 mM Hepes pH 7.9, 1 mM EDTA, 5% glycerol, 40 mM KCl, 0.5 mM DTT, poly(dI-dC), 30 min at 20 C; 6% native PAGE in 0.5x TBE; protein in an extract. For orientation: A gel shift assay detects complexes by their altered migration in electrophoresis.

Construct, isoform or probe ends are uncertain for at least one entry. Where cells or extracts were used, other partners may take part. Tags and fusion partners may be left off the protein sequences shown.

With “GGGAAATTCCGTGGGAAATTCCGAGCT (double strand) [PRDII oligonucleotide]”, the binding result was “binds”.
